The supplement of paper PMC12819154, “High-throughput peptide-centric local stability assay extends protein–ligand identification to membrane proteins, tissues and bacteria” (Nature Structural & Molecular Biology, 2025)
This is one part of the list. Small differences around the control level are noise.

Chains of the proteins cited; added tags and fusions are not shown. Lines headed by an entry give the natural chain unless they say otherwise; changes in a name come on top.
UniProt O35381: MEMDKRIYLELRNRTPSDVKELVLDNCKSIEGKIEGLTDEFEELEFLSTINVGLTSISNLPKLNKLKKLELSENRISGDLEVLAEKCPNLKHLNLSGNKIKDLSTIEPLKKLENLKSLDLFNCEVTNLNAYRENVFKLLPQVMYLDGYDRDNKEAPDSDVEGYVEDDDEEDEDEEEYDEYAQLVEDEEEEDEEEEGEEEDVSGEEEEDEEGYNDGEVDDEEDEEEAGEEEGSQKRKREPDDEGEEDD
UniProt O70200: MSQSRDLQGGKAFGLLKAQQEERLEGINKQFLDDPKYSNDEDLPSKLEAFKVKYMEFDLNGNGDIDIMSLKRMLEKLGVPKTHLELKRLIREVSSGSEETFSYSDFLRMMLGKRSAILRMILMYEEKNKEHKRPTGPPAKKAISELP
UniProt O08601: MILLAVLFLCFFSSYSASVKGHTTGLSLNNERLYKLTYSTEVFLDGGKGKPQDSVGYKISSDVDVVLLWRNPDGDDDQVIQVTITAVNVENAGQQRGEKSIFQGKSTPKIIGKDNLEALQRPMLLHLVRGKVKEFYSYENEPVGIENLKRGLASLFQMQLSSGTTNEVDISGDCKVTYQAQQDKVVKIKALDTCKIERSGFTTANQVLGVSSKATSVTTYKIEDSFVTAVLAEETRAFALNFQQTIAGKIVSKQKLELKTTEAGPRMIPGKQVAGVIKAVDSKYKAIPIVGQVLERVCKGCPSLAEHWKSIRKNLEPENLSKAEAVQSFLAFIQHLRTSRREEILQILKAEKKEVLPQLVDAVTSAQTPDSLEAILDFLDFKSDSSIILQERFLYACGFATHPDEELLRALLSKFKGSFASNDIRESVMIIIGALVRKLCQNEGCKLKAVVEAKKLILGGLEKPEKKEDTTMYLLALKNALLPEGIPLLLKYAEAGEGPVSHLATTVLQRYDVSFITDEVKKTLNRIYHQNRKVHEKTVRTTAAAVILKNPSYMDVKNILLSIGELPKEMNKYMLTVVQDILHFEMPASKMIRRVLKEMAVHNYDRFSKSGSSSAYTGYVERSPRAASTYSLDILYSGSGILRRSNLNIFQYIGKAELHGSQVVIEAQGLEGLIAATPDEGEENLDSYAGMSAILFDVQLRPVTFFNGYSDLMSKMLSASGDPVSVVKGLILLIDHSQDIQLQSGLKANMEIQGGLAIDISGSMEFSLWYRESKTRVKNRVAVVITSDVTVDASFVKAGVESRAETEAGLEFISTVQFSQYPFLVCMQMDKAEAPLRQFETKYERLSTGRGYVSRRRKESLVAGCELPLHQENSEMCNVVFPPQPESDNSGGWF
UniProt O70404: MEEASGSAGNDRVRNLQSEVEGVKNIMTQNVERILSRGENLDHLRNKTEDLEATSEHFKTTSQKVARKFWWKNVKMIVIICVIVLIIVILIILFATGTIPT
UniProt O88908: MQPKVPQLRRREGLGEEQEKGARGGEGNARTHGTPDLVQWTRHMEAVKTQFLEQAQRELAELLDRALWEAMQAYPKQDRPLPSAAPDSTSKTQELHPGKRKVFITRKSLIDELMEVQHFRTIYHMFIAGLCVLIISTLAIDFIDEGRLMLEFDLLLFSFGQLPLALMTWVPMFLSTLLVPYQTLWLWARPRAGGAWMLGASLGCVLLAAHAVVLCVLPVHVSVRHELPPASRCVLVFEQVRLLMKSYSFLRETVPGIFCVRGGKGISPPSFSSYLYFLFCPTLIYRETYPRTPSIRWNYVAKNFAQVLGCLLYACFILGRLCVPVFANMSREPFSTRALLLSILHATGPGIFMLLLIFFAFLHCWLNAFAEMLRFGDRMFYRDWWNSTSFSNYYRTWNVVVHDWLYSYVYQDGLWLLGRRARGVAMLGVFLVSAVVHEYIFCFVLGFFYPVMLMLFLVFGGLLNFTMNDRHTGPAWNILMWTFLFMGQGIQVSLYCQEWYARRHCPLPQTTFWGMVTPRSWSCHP
UniProt O08915: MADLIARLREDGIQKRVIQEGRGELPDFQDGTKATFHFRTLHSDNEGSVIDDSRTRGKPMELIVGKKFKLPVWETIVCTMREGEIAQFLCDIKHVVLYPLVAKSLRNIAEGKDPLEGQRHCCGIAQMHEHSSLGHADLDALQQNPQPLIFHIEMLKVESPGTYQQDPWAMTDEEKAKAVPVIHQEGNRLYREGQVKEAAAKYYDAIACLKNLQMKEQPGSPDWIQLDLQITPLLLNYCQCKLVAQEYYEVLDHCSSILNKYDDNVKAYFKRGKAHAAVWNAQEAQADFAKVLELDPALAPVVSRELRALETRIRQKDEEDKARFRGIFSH
UniProt G5E870: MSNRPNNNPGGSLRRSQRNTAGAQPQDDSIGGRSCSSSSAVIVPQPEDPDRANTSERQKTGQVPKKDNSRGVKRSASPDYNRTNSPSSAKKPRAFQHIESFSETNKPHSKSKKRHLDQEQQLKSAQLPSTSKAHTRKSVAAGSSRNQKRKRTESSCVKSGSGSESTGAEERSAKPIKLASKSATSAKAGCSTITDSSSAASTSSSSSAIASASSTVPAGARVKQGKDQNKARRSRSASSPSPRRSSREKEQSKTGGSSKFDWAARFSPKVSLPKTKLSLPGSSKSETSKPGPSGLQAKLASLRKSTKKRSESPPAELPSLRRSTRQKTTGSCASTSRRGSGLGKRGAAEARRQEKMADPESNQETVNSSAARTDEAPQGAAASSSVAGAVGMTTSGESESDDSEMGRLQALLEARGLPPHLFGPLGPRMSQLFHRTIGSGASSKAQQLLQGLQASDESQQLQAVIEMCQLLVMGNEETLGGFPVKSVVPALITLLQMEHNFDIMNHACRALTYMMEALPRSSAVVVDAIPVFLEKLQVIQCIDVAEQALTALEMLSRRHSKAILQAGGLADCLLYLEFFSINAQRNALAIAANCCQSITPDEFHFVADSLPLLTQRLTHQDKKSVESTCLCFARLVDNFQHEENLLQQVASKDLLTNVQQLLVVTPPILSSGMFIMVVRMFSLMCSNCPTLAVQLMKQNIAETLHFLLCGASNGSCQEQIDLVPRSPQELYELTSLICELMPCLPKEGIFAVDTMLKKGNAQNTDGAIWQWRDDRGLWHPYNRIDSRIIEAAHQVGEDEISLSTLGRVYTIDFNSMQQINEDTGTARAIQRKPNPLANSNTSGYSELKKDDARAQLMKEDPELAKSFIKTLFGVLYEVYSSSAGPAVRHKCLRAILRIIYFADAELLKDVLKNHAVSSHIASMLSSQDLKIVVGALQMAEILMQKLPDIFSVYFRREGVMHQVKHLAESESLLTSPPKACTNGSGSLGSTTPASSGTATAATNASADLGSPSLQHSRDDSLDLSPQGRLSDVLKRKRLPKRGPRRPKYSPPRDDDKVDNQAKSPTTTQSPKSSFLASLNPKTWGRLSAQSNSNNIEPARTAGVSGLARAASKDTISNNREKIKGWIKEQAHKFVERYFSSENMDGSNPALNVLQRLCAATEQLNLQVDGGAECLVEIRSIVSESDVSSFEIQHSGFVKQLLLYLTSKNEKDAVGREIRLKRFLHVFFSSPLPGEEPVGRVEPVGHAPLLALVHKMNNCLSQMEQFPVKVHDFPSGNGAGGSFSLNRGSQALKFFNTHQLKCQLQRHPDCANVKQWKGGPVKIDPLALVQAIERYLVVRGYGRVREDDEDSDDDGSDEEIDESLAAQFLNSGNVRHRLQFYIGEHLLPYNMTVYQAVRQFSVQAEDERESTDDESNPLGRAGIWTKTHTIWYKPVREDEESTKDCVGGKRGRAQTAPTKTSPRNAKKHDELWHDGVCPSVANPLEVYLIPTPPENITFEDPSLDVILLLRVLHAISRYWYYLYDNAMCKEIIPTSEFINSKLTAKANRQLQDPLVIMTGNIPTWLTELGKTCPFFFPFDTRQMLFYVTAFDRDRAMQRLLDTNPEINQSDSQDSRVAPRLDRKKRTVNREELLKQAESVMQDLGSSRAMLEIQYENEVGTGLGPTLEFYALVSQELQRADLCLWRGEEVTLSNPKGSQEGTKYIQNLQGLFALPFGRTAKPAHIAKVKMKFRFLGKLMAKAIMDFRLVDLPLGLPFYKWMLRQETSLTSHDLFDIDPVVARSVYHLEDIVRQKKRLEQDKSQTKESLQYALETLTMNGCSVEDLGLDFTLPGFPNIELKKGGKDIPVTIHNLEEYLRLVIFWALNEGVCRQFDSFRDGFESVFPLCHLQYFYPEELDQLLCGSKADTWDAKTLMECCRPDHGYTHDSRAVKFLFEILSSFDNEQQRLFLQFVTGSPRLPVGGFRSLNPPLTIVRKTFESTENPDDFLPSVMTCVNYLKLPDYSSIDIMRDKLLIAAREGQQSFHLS
UniProt O08917: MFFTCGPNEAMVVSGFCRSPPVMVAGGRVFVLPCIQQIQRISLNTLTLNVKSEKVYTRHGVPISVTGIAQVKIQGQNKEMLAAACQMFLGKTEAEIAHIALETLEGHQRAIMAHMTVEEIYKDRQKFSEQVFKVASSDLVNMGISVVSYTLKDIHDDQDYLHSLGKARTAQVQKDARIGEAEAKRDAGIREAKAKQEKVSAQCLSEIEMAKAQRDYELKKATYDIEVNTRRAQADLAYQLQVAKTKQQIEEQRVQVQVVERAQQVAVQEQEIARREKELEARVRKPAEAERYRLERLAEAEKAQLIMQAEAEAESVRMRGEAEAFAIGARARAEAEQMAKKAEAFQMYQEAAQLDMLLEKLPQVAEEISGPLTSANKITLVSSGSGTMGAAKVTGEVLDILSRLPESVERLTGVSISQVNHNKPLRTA
UniProt O70310: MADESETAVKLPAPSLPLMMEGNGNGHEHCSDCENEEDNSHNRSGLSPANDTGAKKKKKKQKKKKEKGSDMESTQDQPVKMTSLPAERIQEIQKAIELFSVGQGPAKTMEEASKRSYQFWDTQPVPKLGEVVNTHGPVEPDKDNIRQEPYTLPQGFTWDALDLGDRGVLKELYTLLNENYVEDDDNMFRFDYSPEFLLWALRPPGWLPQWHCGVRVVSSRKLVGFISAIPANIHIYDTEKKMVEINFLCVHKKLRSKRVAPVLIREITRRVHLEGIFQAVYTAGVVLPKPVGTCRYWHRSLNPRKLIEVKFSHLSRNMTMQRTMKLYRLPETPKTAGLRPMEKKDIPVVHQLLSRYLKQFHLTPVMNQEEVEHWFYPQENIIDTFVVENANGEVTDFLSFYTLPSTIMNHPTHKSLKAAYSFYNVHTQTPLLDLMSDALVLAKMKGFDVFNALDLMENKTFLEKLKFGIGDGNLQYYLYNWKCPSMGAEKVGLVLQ
UniProt O09053: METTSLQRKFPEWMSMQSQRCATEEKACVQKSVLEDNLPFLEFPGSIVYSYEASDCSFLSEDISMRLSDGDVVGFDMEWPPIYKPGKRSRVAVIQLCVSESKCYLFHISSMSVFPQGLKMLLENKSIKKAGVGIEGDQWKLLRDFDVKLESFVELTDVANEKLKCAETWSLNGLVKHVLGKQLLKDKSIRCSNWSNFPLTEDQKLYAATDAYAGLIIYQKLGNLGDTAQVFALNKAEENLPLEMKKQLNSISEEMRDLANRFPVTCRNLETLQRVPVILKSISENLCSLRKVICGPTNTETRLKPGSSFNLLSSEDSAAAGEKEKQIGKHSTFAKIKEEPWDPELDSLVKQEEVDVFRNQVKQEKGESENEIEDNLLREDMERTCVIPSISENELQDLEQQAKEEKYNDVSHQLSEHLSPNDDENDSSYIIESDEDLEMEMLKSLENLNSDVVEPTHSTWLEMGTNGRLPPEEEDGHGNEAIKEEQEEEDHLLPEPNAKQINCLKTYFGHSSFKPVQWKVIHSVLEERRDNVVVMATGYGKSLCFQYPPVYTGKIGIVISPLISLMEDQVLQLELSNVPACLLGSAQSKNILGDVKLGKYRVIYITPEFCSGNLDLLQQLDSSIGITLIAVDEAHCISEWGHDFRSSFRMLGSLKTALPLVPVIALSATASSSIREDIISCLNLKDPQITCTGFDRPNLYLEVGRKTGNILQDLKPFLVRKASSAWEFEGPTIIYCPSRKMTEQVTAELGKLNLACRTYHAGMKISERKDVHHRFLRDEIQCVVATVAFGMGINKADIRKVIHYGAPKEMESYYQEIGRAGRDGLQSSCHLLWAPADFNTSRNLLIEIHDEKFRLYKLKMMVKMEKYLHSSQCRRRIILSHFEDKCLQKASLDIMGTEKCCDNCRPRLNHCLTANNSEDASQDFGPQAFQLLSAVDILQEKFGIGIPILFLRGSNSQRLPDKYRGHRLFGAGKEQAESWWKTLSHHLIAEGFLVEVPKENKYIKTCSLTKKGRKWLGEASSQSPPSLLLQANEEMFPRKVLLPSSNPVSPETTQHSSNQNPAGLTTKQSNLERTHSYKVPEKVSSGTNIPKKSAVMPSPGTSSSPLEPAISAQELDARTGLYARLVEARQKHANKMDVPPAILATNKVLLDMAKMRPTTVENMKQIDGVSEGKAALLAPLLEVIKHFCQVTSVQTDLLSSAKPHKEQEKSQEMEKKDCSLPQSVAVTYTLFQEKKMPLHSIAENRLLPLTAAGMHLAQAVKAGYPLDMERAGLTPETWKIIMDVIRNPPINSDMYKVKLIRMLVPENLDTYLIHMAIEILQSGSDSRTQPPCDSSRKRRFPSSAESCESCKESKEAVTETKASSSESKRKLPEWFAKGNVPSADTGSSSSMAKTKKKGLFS

Each target was assayed with CN[C@@H]1C[C@H]2O[C@@](C)([C@@H]1OC)n1c3ccccc3c3c4c(c5c6ccccc6n2c5c31)C(=O)NC4 [staurosporine] (assay: log2 fold change of pooled soluble protein (PISA), ligand vs vehicle (log2 ratio); higher = more thermally stabilized). Conditions: ligand concentration: 20 uM; assay format: PISA pool 52.9/55.5/58.6 C.

Row | Target | log2 fold change of pooled soluble protein
1 | UniProt O35678 | -0.233
2 | UniProt O35381 | -0.0517
3 | UniProt O09012 | -0.33
4 | UniProt G5E829 | -0.0509
5 | UniProt O35728 | -0.0734
6 | UniProt O70200 | 0.0195
7 | UniProt O08601 | 0.035
8 | UniProt O54750 | -0.32
9 | UniProt O70404 | -0.105
10 | UniProt O55023 | -0.0482
11 | UniProt O88908 | -0.0215
12 | UniProt O35598 | -0.218
13 | UniProt O08915 | -0.229
14 | P01754;P06328 | 0.165
15 | UniProt G5E870 | -0.0159
16 | UniProt O35423 | 0.0273
17 | UniProt O70423 | 0.421
18 | UniProt O35643 | 0.0274

Look-ups from the list.
For log2 fold change of pooled soluble protein, UniProt O70200 reads 0.0195
For log2 fold change of pooled soluble protein, UniProt G5E870 reads -0.0159
For log2 fold change of pooled soluble protein, UniProt O35643 reads 0.0274

Further entries follow.

Row | Target | log2 fold change of pooled soluble protein
19 | UniProt O08917 | -0.121
20 | UniProt O89079 | 0.329
21 | UniProt O70305 | 0.0191
22 | UniProt O35955 | -0.104
23 | UniProt O88455 | 0.0735
24 | UniProt O70492 | -0.071
25 | UniProt O88543 | -0.0614
26 | UniProt O88833 | 0.00106
27 | UniProt O70310 | 0.157
28 | UniProt O88736 | 0.141
29 | UniProt O70133 | -0.111
30 | UniProt O09053 | -0.33
31 | UniProt O89110 | -0.0794
32 | UniProt O55126 | -0.107
33 | UniProt O55106 | -0.212
34 | UniProt O08539 | 0.0265
35 | UniProt O35405 | -0.112
36 | UniProt G5E8K5 | -0.124
